# From US10022380B2, “Treatment of solid tumours” (Vivolux AB, priority 2012, dated 2018)
# At least one compound was matched to its structure with a doubt left.
# Test system: LC3-I and LC3-II
# Test: LC3-I / LC3-II induction in HCT116 (western blot, LC3 staining)
# Assay type: cell-based
# Conditions: HCT116 cells
# Description: FIG. 4B: Staining of CB21-treated cells with an antibody to LC3. […] Cells were treated for 6 hours (6 μM), and then incubated further. Protein were extracted and subjected to western blot analysis. […] FIGS. 4F-4H: Morphology of peripheral and core cells visualized by electron microscopy. MCS were treated for 6 hours with 6 μM C21 and incubated further in drug-free medium for the times indicated and sectioned.
# MCSs contain mostly non-proliferating cells. […] The mechanism(s) of action was studied in more detail. […] LC3-II (the PE-conjugated form of LC3) is a protein marker regarded to be most reliably associated with autophagosomes (19).
smiles,measurement,setting,value
CO[C@H]1C[C@@H]2CC[C@@H](C)[C@@](O)(O2)C(=O)C(=O)N2CCCC[C@H]2C(=O)O[C@H]([C@H](C)C[C@@H]2CC[C@@H](O)[C@H](OC)C2)CC(=O)[C@H](C)/C=C(\C)[C@@H](O)[C@@H](OC)C(=O)[C@H](C)C[C@H](C)/C=C/C=C/C=C/1C [Rapamycin],Induction of LC3-I and LC3-II,6 h,weak induction
same,Induction of LC3-I and LC3-II,24 h,no induction observed
